# PubChem BioAssay AID1259424 | University of Nebraska Medical Center | 2018
# Screen: 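Find knockdowns that reproduce the expression shifts seen after KSR1 loss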 (primary screen)
# System: human HCT116 colon cancer cells
# Knock-down reagent: siRNA pool against human genes, 50 nM
# Read-out: 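Log2 levels of six mRNAs (branched-DNA multiplex), adjusted by two reference genes and the non-targeting median, then scored against the average KSR1 knockdown pattern as Pearson r and euclidean distance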
# Scale: mean correlation with KSR1 profile: higher = expression change more like KSR1 knockdown
# This is one part, drawn at random, of about 14,000 reagents tested. 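Higher correlation or smaller distance means closer resemblance to KSR1 loss; control wells, including KSR1 knockdowns, recur on many plates.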 Not all columns of the deposit are shown. The record does not give: the time to read-out.
gene,mean correlation with KSR1 profile
ERAL1 (GeneID 26284),0.487
ELAVL1 (GeneID 1994),0.355
TECPR2 (GeneID 9895),-0.263
PARPBP (GeneID 55010),-0.761
KCNMB3 (GeneID 27094),0.239
GDF1 (GeneID 2657),0.243
NKX6-2 (GeneID 84504),-0.388
DCAF13 (GeneID 25879),-0.209
SUV39H2 (GeneID 79723),-0.0572
ITIH3 (GeneID 3699),0.256
SYNGR2 (GeneID 9144),-0.276
RIGI (GeneID 23586),-0.341
SPRYD3 (GeneID 84926),0.388
TSPAN32 (GeneID 10077),-0.515
RBM7 (GeneID 10179),0.555
TTR (GeneID 7276),0.448
ODAD4 (GeneID 83538),-0.127
ZNF678 (GeneID 339500),0.631
GCC2-AS1 (GeneID 644903),0.665
AICDA (GeneID 57379),0.525
TCHP (GeneID 84260),0.183
TSPY2 (GeneID 64591),-0.415
TMEM120A (GeneID 83862),0.677
FOXC1 (GeneID 2296),0.71
FGF17 (GeneID 8822),0.225
DCTN1 (GeneID 1639),0.369
ZNF143 (GeneID 7702),-0.137
KLHL41 (GeneID 10324),0.147
DNAH8 (GeneID 1769),-0.549
CLDN8 (GeneID 9073),0.551
MAZ (GeneID 4150),0.216
TNIP2 (GeneID 79155),-0.205
RNF19A (GeneID 25897),-0.315
FAS (GeneID 355),-0.642
IFNA21 (GeneID 3452),-0.356
BLTP2 (GeneID 9703),0.878
FGA (GeneID 2243),-0.131
RAPGEF1 (GeneID 2889),0.629
TRIM68 (GeneID 55128),-0.381
ZNF248 (GeneID 57209),-0.616
CRISP2 (GeneID 7180),-0.568
NSD2 (GeneID 7468),0.301
ASNS (GeneID 440),0.163
ADSL (GeneID 158),0.174
CHID1 (GeneID 66005),-0.11
ZNF667 (GeneID 63934),-0.424
MPP3 (GeneID 4356),0.0985
MTMR11 (GeneID 10903),-0.937
STRC (GeneID 161497),-0.163
RAB11FIP2 (GeneID 22841),-0.252

Part of the list above, set out differently:
| gene | mean correlation with KSR1 profile |
| --- | --- |
| TECPR2 (GeneID 9895) | -0.263 |
| PARPBP (GeneID 55010) | -0.761 |
| KCNMB3 (GeneID 27094) | 0.239 |
| GDF1 (GeneID 2657) | 0.243 |
